PubChem BioAssay AID504793, Drosophila RNAi Screening Center, 2011
Assay: 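Genes required for cells to halt at G2/M after double-strand DNA breaks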 (primary screen). Cells: Drosophila S2R+ cells. Reagents: long dsRNA against Drosophila genes, about 0.25 µg dsRNA per well. Time to read-out: 4 days of dsRNA, then 4 hours of drug before read-out. Treatment: doxorubicin 0.5 µM for 4 hours to cause double-strand breaks, in cells also given a low, harmless dose of dsRNA against nbs to sensitise the assay. Measured: 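Mitotic index as the number of phospho-histone H3-positive cells in each well following doxorubicin, given as raw counts without normalisation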. Scale: mitotic cells: higher = more cells in mitosis, weaker G2 arrest. Hit rule: 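Genes are called active only when high mitotic counts were reproduced with independent dsRNAs and mitosis was checked for delay without damage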. Meaning of the calls: active = confirmed in follow-up tests; inactive = not confirmed.
The screen tested about 23,000 reagents; this is an unselected part of those that have a named target and a result. Of all reagents, 62 (0.27%) were called active. 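Calls come from follow-up tests whose scores are not deposited, so confirmed genes may have low counts here; counts are not normalised per plate.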 The raw values are shown without normalisation. Names joined by + are all predicted targets of the reagent.

gene | dsRNA | mitotic cells, replicate 1 | mitotic cells, replicate 2 | Outcome
CG14000 | DRSC02332 | 4 | – | inactive
dpr14 | DRSC17767 | 6 | – | inactive
dpr14 | DRSC26488 | 10 | – | inactive
CG34168 | DRSC01938 | 4 | – | inactive
CG13010 | DRSC19529 | 9 | – | inactive
CG13010 | DRSC27744 | 6 | – | inactive
CG11741 | DRSC14367 | 6 | – | inactive
TwdlT | DRSC21540 | 4 | – | inactive
UQCR-11L | DRSC22166 | 16 | – | inactive
Rcc1 | DRSC09684 | 4 | – | inactive
Rcc1 | DRSC28981 | 3 | – | inactive
atos | DRSC07318 | 6 | – | inactive
Ktch | DRSC15094 | 18 | – | inactive
Ktch | DRSC25973 | 9 | – | inactive
Srr | DRSC16382 | 6 | – | inactive
Srr | DRSC27485 | 6 | – | inactive
CG14960 | DRSC08419 | 8 | – | inactive
pcs | DRSC07042 | 2 | – | inactive
CG31988 | DRSC22491 | 5 | – | inactive
CG4576 | DRSC15604 | 9 | – | inactive
CG4576 | DRSC26364 | 4 | – | inactive
CG17721 | DRSC15253 | 9 | – | inactive
Edc3 | DRSC10620 | 4 | – | inactive
Edc3 | DRSC23994 | 10 | – | inactive
Klp68D | DRSC11206 | 8 | – | inactive
Klp68D | DRSC29890 | 7 | – | inactive
Cont | DRSC12149 | 7 | – | inactive
CG10492 | DRSC24982 | 6 | – | inactive
CG14186 | DRSC10185 | 11 | – | inactive
CG14186 | DRSC28085 | 9 | – | inactive
CG17196 | DRSC15189 | 7 | – | inactive
CG15404 | DRSC00418 | 2 | – | inactive
Yif1 | DRSC15817 | 15 | – | inactive
CG12684 | DRSC17875 | 10 | – | inactive
PQBP1 | DRSC14393 | 2 | – | inactive
CG31467 | DRSC16048 | 1 | – | inactive
CG31467 | DRSC28533 | 9 | – | inactive

A portion from the list above, for reference:
gene | dsRNA | mitotic cells, replicate 1 | mitotic cells, replicate 2 | Outcome
dpr14 | DRSC17767 | 6 | – | inactive
dpr14 | DRSC26488 | 10 | – | inactive
CG34168 | DRSC01938 | 4 | – | inactive
CG13010 | DRSC19529 | 9 | – | inactive
CG13010 | DRSC27744 | 6 | – | inactive
CG11741 | DRSC14367 | 6 | – | inactive
TwdlT | DRSC21540 | 4 | – | inactive

Next records follow.
gene | dsRNA | mitotic cells, replicate 1 | mitotic cells, replicate 2 | Outcome
Atx-1 | DRSC18365 | 11 | – | inactive
CG30062 | DRSC21737 | 7 | – | inactive
Prp5 | DRSC19975 | 6 | – | inactive
Prp5 | DRSC27434 | 12 | – | inactive
CG42457 (retired record) + cpo | DRSC13273 | 7 | – | inactive
CG42457 (retired record) + cpo | DRSC23006 | 14 | – | inactive
CG42457 (retired record) + cpo | DRSC25799 | 7 | – | inactive
RpS8 | DRSC16318 | 9 | – | inactive
CG15449 | DRSC20521 | 6 | – | inactive
Sr-CII | DRSC07557 | 7 | – | inactive
Sr-CII | DRSC25606 | 6 | – | inactive
CG9692 | DRSC11091 | 5 | – | inactive
Pgant3 | DRSC05942 | 4 | – | inactive
Pgant3 | DRSC29252 | 3 | – | inactive
corto | DRSC22988 | 12 | – | inactive
corto | DRSC25778 | 1 | – | inactive
JhI-26 | DRSC06851 | 2 | – | inactive
JhI-26 | DRSC27424 | 5 | – | inactive
Herc4 | DRSC08631 | 9 | – | inactive
plx | DRSC12260 | 8 | – | inactive
plx | DRSC12385 | 8 | – | inactive
plx | DRSC22683 | 10 | – | inactive
plx | DRSC28545 | 10 | – | inactive
Crtc | DRSC23130 | 5 | – | inactive
Crtc | DRSC26174 | 7 | – | inactive
CHES-1-like | DRSC18447 | 19 | – | inactive
wa-cup | DRSC12511 | 2 | – | inactive
Dip-B | DRSC16466 | 4 | – | inactive
Dip-B | DRSC25975 | 11 | – | inactive
CG13245 | DRSC02243 | 3 | – | inactive
Sym | DRSC12301 | 11 | – | inactive
Sym | DRSC29255 | 4 | – | inactive
alphaSnap | DRSC11285 | 3 | – | inactive
alphaSnap | DRSC29788 | 7 | – | inactive
CG42362 + CG42363 | DRSC04265 | 3 | – | inactive
CG14280 | DRSC14761 | 7 | – | inactive
ppl | DRSC11899 | 9 | – | inactive
ppl | DRSC27839 | 6 | – | inactive
RpL40 | DRSC00782 | 3 | – | inactive
Rpt5 | DRSC16842 | 23 | – | inactive
Rpt5 | DRSC26269 | 12 | – | inactive
Mst98Cb | DRSC16750 | 12 | – | inactive
Mst98Cb | DRSC22495 | 7 | – | inactive
Mst98Cb | DRSC25707 | 3 | – | inactive
CG6654 | DRSC16084 | 3 | – | inactive
CG30022 | DRSC22405 | 8 | – | inactive
Bet1 | DRSC10088 | 5 | – | inactive
CG31612 | DRSC03697 | 8 | – | inactive
CG31612 | DRSC03698 | 11 | – | inactive
CG32683 | DRSC17990 | 9 | – | inactive
CG32683 | DRSC18232 | 11 | – | inactive
CG32683 | DRSC18233 | 8 | – | inactive
CG32683 | DRSC29475 | 9 | – | inactive
CG15537 | DRSC15073 | 6 | – | inactive
CG15537 | DRSC25589 | 7 | – | inactive
CG31121 | DRSC15361 | – | – | inactive
CG31121 | DRSC15363 | 8 | – | inactive
Or33a | DRSC03386 | 8 | – | inactive
CG17776 | DRSC18136 | 2 | – | inactive
CG17776 | DRSC27477 | 8 | – | inactive
SecCl | DRSC10887 | 2 | – | inactive
CG34149 | DRSC14537 | 2 | – | inactive
NT1 | DRSC08530 | 1 | – | inactive
NT1 | DRSC22895 | 18 | – | inactive
CG7300 | DRSC03044 | 6 | – | inactive
CG7300 | DRSC28239 | – | – | inactive
CG8236 | DRSC16399 | 4 | – | inactive
CG8236 | DRSC26321 | 2 | – | inactive
Hsp23 | DRSC11188 | – | – | inactive
Hsp23 | DRSC29302 | 5 | – | inactive
MFS1 | DRSC04115 | 6 | – | inactive
MFS1 | DRSC27926 | 6 | – | inactive
CG31437 | DRSC13711 | 24 | 15 | inactive
